At least one structure is not confirmed: it was looked up by name or label, or the drawing left a doubt.
Columns and labels:
[1] = system: orchidectomized male Sprague-Dawley rat; assay: In vivo assay, orchidectomized mature male rats (14 days oral)
Excerpt: The orchidectomized male Sprague-Dawley rat model was used to assess the effects of Compound 102 on various reproductive, gonadotropin and musculoskeletal endpoints, including sex accessory organs, bone, serum gonadotropin levels and striated muscle in mature male rats.
In this assay, two-month old rats were acclimated in a vivarium for one week. After this acclimation period, rats were surgically orchidectomized under isoflurane anesthesia and left untreated for 14 days. After 14 days, animals were sorted into groups such that no statistically significant differences in mean body weights were observed. Rats began receiving treatment 14 days after the day of surgery. Sham-operated and orchidectomized rats, treated with vehicle, served as controls. The different test groups were treated with various doses of Compound 102 (0.03 to 100 mg/kg/day per os (by mouth)). Dosages included 0.03, 0.1, 0.3, 1, 3, 10, 30 and 100 mg/kg/day. Ostarine, a non-steroidal androgenic drug (Evans et al., J Clin Oncology 25: 9119 (2007)) was dosed at dosages similar to other test groups as a comparison. After the 14th dose, venous blood was collected at 0, 1, 2, 4 and 6 hours after dosing. The blood samples were collected in EDTA-containing tubes (Becton Dickinson, Franklin Lakes, N.J.). Approximately 24 hours after the last dose, animals were euthanized and seminal vesicle weights, ventral prostate weights, levator ani weights, preputial gland weights and blood samples were collected on necropsy.
For serum, whole blood (5 mL) was collected in vacutainer tubes (Becton Dickinson) and the blood samples were allowed to clot at room temperature for about 2 hours. Serum was separated by centrifugation at 2500 rpm for 30 minutes, collected and frozen (−80° C.). For plasma, whole blood was collected in EDTA-containing tubes by centrifugation at 1000×g for 5 minutes at 4° C. Plasma samples were stored at −20° C.
For the preparation of all dose formulations, the appropriate amount of test compound (Compound 102) for the highest concentration to be administered was weighed. The compound was suspended in the formulation vehicle (5% Tween®-80 polysorbate, 90% PEG-400 polyethylene glycol and 5% PVP-K30 polyvinylpyrrolidone). […]
The assay was terminated by centrifugation at 2,500 rpm for 30 minutes in a Sorvall RC 3C Plus centrifuge (rotor #H2000B) at 4° C. The supernatants were decanted and discarded and the pellets were counted in a 10-channel gamma-counter.
Serum osteocalcin, a vitamin K-dependent, calcium binding protein, is a biochemical marker that reflects bone formation activity (Gundberg, J Clin Ligand Assay 21: 128-138 (1998)). Serum osteocalcin was quantitated using an IRMA kit from Immutopics, Inc. (#50-1500, San Clemente, Calif.). […]

hAR = molecular target: T1, hAR (Homo sapiens, UniProt P10275); assay: Activation of hAR in a co-transfection assay (CV-1 cells); assay type: cell-based; conditions: ratio of EC50
T1 construct: expressed in transfected cells; host or cells: CV-1 (African monkey kidney, lacking endogenous AR)
T1 sequence (P10275 1-920): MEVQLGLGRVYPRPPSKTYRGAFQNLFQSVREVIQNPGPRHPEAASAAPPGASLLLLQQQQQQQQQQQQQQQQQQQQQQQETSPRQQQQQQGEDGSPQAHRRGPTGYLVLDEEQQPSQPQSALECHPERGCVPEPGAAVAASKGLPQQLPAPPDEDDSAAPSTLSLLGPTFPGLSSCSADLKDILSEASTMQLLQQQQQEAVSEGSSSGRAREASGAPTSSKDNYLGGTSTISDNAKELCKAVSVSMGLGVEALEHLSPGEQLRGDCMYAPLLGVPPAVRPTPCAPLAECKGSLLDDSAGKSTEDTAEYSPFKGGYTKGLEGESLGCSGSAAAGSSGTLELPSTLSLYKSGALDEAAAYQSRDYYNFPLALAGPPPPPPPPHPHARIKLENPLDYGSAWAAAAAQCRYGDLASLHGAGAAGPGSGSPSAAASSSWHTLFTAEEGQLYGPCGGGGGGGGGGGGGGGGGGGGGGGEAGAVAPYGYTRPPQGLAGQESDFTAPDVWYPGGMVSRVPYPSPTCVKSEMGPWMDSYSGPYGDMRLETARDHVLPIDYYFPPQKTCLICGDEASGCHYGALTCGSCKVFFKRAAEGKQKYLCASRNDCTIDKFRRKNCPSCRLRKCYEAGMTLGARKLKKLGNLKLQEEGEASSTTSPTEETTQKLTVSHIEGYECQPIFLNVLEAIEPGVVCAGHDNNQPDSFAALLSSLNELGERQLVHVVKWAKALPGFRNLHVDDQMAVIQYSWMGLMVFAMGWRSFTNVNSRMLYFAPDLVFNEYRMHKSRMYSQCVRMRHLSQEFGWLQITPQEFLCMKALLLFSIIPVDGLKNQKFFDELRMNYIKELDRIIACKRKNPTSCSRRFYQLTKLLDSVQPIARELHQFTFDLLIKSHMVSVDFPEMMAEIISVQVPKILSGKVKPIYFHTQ

[2] = 100 mg/kg/day PO (highest dose)

## N#Cc1ccc(N2CCC[C@@H]2[C@@H](O)C(F)(F)F)cc1C(F)(F)F [Compound 102, R,R-4-(2-(1-Hydroxyl-2,2,2-trifluoroethyl)-pyrrolidinyl)-2-trifluoromethyl-benzonitrile]
[1]; 0.03-100 mg/kg/day PO
  serum osteocalcin: tended to decrease with increasing dose of Compound 102, but the effects were not statistically significant
[1]; [2]
  levator ani weight versus sham: significantly increased levator ani weight above sham-equivalent levels
  serum LH versus sham: significantly decreased serum LH below sham equivalent levels
[1]; about 1.5 mg/kg/day PO
  growth of ventral prostate or seminal vesicle versus sham: did not maintain the growth of ventral prostate or seminal vesicle at sham-equivalent level
hAR
  more potent than LG0893410 and LG0893411 in activating hAR: 3 to 5 times
